Data reported in US7235544B2, “3-sulfonylamino-pyrrolidine-2-one derivatives as inhibitors of factor Xa” (Glaxo Group Limited, priority 2003, dated 2007).
Where a name gives a salt, the structure may show the parent alone. Some entries share one result that the patent states for a list of compounds.

Protein sequences, listed by entry. Tags and fused reporters are not part of them. Residues count along the entry.
UniProt P00742, 41-179 partner limits assumed: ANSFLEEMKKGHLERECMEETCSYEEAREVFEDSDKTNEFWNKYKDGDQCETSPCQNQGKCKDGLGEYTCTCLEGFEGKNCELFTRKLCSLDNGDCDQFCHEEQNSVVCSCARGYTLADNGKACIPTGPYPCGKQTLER
UniProt P00742, 235-488 limits assumed: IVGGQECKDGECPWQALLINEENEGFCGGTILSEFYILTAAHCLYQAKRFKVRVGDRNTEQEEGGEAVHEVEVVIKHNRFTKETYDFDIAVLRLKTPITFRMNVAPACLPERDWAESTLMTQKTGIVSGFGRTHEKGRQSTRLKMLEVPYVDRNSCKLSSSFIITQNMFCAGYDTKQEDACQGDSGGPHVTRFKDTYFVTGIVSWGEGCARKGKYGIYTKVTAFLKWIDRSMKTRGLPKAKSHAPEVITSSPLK

Biological target: T1, human Factor Xa (Homo sapiens, UniProt P00742)
T1 construct: containing human Factor Xa (final concentration of 0.0003 U.ml-1)
Assay: In vitro assay for inhibition of Factor Xa (fluorogenic assay)
Assay type: biochemical
Settings: Ki = IC50/(1+[Substrate]/Km), i.e. IC50 divided by 1.6

Ki, < 10 nM:
C[C@H](c1cc(F)c(N2CC[C@H](NS(=O)(=O)/C=C/c3ccc(Cl)s3)C2=O)c(F)c1)N(C)C [Example 12, (E)-2-(5-Chloro-2-thienyl)-N-((3S)-1-{4-[(1R)-1-(dimethylamino)ethyl]-2,6-difluorophenyl}-2-oxo-3-pyrrolidinyl)ethenesulfonamide]
CN(C)C(C)(C)c1ccc(N2CCC(NS(=O)(=O)/C=C/c3ccc(Cl)s3)C2=O)c(F)c1 (stereo not drawn) [Example 16, (E)-2-(5-Chloro-2-thienyl)-N-(1-{4-[1-(dimethylamino)-1-methylethyl]-2-fluorophenyl}-2-oxo-3-pyrrolidinyl)ethenesulfonamide formate]
CC(N)c1ccc(N2CCC(NS(=O)(=O)/C=C/c3ccc(Cl)s3)C2=O)c(F)c1 (stereo not drawn) [Example 4, (E)-N-{1-[4-(1-Aminoethyl)-2-fluorophenyl]-2-oxo-3-pyrrolidinyl}-2-(5-chloro-2-thienyl)ethenesulfonamide formate]
CC(C)C(c1ccc(N2CC[C@H](NS(=O)(=O)/C=C/c3ccc(Cl)s3)C2=O)c(F)c1)N(C)C (stereo partly drawn) [Example 15, (E)-2-(5-Chloro-2-thienyl)-N-((3S)-1-{4-[1-(dimethylamino)-2-methylpropyl]-2-fluorophenyl}-2-oxo-3-pyrrolidinyl)ethenesulfonamide formate]
CN(C)C(C)(C)c1ccc(N2CCC(NS(=O)(=O)c3ccc4cc(Cl)ccc4c3)C2=O)c(F)c1 (stereo not drawn) [Example 17, 6-Chloro-N-(1-{4-[1-(dimethylamino)-1-methylethyl]-2-fluorophenyl}-2-oxo-3-pyrrolidinyl)-2-naphthalenesulfonamide formate]
CC(c1ccc(N2CCC(NS(=O)(=O)/C=C/c3ccc(Cl)s3)C2=O)c(F)c1)N(C)CCO (stereo not drawn) [Example 3, (E)-2-(5-Chloro-2-thienyl)-N-[1-(2-fluoro-4-{1-[(2-hydroxyethyl)(methyl)amino]ethyl}phenyl)-2-oxo-3-pyrrolidinyl]ethenesulfonamide]
CN(C)C(C)(C)c1ccc(N2CCC(NS(=O)(=O)c3cc4ccc(Cl)cc4s3)C2=O)c(F)c1 (stereo not drawn) [Example 18, 6-Chloro-N-(1-{4-[1-(dimethylamino)-1-methylethyl]-2-fluorophenyl}-2-oxo-3-pyrrolidinyl)-1-benzothiophene-2-sulfonamide formate]
CCC(c1ccc(N2CC[C@H](NS(=O)(=O)/C=C/c3ccc(Cl)s3)C2=O)c(F)c1)N(C)C (stereo partly drawn) [Example 14, (E)-2-(5-Chloro-2-thienyl)-N-((3S)-1-{4-[1-(dimethylamino)propyl]-2-fluorophenyl}-2-oxo-3-pyrrolidinyl)ethenesulfonamide formate]
CC(c1ccc(N2CCC(NS(=O)(=O)/C=C/c3ccc(Cl)s3)C2=O)c(F)c1)N1CCOCC1 (stereo not drawn) [Example 2, (E)-2-(5-Chloro-2-thienyl)-N-(1-{2-fluoro-4-[1-(4-morpholinyl)ethyl]phenyl}-2-oxo-3-pyrrolidinyl)ethenesulfonamide]
